Assay results published in PubChem BioAssay AID602313 (National Center for Advancing Translational Sciences (NCATS), 2012).
About 760 (0.19%) of roughly 390,000 compounds were called active. This list was built around the results that the source calls inconclusive (neither active nor inactive); the mix of calls is not that of the screen. The call rests on the fitted dose curve; in most records, active means well fitted inhibition curve with a large enough effect; inconclusive means small, poorly fitted or top-dose-only effect; inactive means flat fitted curve, though single readings scatter. A potency beside an inconclusive call is a rough fit, not a confirmed value.
Potency means the concentration at half of the fitted maximal effect.

Test: qHTS for Inhibitors of Vif-A3F Interactions: qHTS; further: nearly all actives have a fitted effect of over 65% in size
Conditions: HeLa A3F-eYFP + Vif (tagged APOBEC3F with the HIV-1 protein that degrades it), YFP fluorescence increase; series mostly up to 46.1 µM
Summary of the method: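 Fluorescence increase (Ex 488/Em 500-530) after overnight compound treatment at 37 deg C flags inhibition of Vif-driven A3F-eYFP loss in stable HeLa A3F-eYFP/Vif cells seeded overnight beforehand.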
With `CCCCCCCCNc1ccccc1S(=O)(=O)NCc1ccccc1` the Potency was inconclusive: 35.5 µM [inhibitor, single point].
In the case of `CC(C)C(c1nnnn1C(C)(C)C)N1CCC(Cc2ccccc2)CC1` (stereo not drawn), the Potency is reported as inconclusive: 22.4 µM [inhibitor, single point].
For `CNc1oc(/C=C/c2ccccc2)nc1C#N`, the Potency was “inactive”.
In the case of `COc1cccc(CN(C(=O)COc2ccc(Cl)cc2)C2CCS(=O)(=O)C2)c1` (stereo not drawn), the Potency is reported as inconclusive: 5.62 µM [inhibitor, single point].
For `Cc1ccc(/C=N/NC(=O)c2c(C)nc3ccc(Br)cn23)cc1`, the Potency was “inactive”.
With `Nc1nonc1-c1nc2ccccc2n1Cc1c(Cl)cccc1Cl` the Potency was inconclusive: 20 µM [inhibitor, single point].
For `CN1/C(=C\C=C(/C#N)C(=O)Nc2ccc(Cl)cc2)C(C)(C)c2ccccc21`, the Potency was inconclusive: 6.31 µM [inhibitor, partial curve, poor fit].
In the case of `COc1ccccc1-c1nc(=S)c(C(C)=O)c(C)[nH]1`, the Potency is reported as inconclusive: 35.5 µM [inhibitor, partial curve, poor fit].
For `CCCCCCn1c(=O)n2n(c1=O)C[C@]1(OC(=O)NCC3CCCCC3)CN(S(=O)(=O)c3ccc(C)cc3)C[C@]1(O)C2`, the Potency was inconclusive: 35.5 µM [inhibitor, single point].
For `C/C=C/c1ccc(OCCCCNCc2ccco2)c(OC)c1`, the Potency was inconclusive: 2.82 µM [inhibitor, single point].
For `CCOC(=O)C1=C(O)/C(=C/c2ccc(-c3ccccc3C(=O)O)o2)SC1=Nc1ccc(C)cc1`, the Potency was inconclusive: 20 µM [inhibitor, partial curve, poor fit].
For `COc1ccc(CCNS(=O)(=O)c2cccc([N+](=O)[O-])c2)cc1OC`, the Potency was “inactive”.
In the case of `CCOC(=O)C1C(=O)NC(SCC(N)=O)=C(C#N)C1c1ccccc1OCC` (stereo not drawn), the Potency is reported as inconclusive: 25.1 µM [inhibitor, single point].
With `O=C(Nc1nccs1)c1cccc(N2C(=O)c3cccc4c([N+](=O)[O-])ccc(c34)C2=O)c1` the Potency was inconclusive: 3.16 µM [inhibitor, partial curve, poor fit].
For `CCOc1ccc2[nH]c(C)c(CN3CCN(CC)CC3)c(=O)c2c1`, the Potency was “inactive”.
In the case of `CCOc1ccc(NC(=O)CN2C(=O)/C(=C3\SC(=S)N(C4CCS(=O)(=O)C4)C3=O)c3ccccc32)cc1` (stereo not drawn), the Potency is reported as inconclusive: 3.16 µM [inhibitor, single point].
For `COc1cc(OC)c(NC(=O)c2cc(C(C)=O)n3ccccc23)cc1Cl`, the Potency was “inactive”.
With `CC(=O)c1cccc2c(O)c(C3=Nc4ccccc4C3=O)[nH]c12` the Potency was “inactive”.
In the case of `CCOc1ccc(-c2cc(C(=O)NC(C)c3ccccc3)c3ccccc3n2)cc1` (stereo not drawn), the Potency is reported as inconclusive: 11.2 µM [inhibitor, partial curve, poor fit].
In the case of `O=C(N/N=C/C(Cl)=C/c1ccccc1)c1ccc2c(c1)OCO2`, the Potency is reported as inconclusive: 22.4 µM [inhibitor, single point].
In the case of `Cc1ccc(C)c(N2CCN(S(=O)(=O)c3ccc(-c4cnc(C5CC5)o4)cc3)CC2)c1`, the Potency is reported as “inactive”.
With `C#CCN1C(=O)S/C(=C/C=C/c2ccc(N(C)C)cc2)C1=O` the Potency was inconclusive: 4.47 µM [inhibitor, full curve, poor fit].
In the case of `O=C(CCS(=O)(=O)c1ccc(Br)cc1)N1CCN(Cc2ccccc2)CC1`, the Potency is reported as “inactive”.
For `CC(=O)C1=C(c2ccc(F)cc2)N(C(C)=O)n2c(nnc2C2CCCCC2)S1`, the Potency was inconclusive: 35.5 µM [inhibitor, single point].
In the case of `COc1ccc2nc(N3CCCC(C(=O)NCCCN4C(C)CCCC4C)C3)sc2c1` (stereo not drawn), the Potency is reported as “inactive”.
For `CCOC(=O)N1CCc2c(sc3c2c(=O)n(-c2ccc(F)cc2)c(=O)n3CC(=O)c2ccc(Cl)cc2)C1`, the Potency was inconclusive: 12.6 µM [inhibitor, single point].
For `O=C(NNc1cc(Cl)ccc1Cl)c1cccnc1Cl`, the Potency was inconclusive: 0.562 µM [inhibitor, partial curve, poor fit].
In the case of `O=C(c1cc(-c2ccc(F)cc2)on1)N1CCCC1`, the Potency is reported as “inactive”.
For `Cc1ccccc1NC(=O)C1CCCN(S(=O)(=O)c2ccc(-n3cnnn3)cc2)C1` (stereo not drawn), the Potency was inconclusive: 6.31 µM [inhibitor, single point].
For `Cc1ccc(NC(=O)c2ccc(NCCCN3CCC(C)CC3)c([N+](=O)[O-])c2)cc1F`, the Potency was active: 10 µM.
With `COc1cc(OC)c(OC)cc1/C=C/C(=O)c1ccc(NS(=O)(=O)c2ccc(C)cc2)cc1` the Potency was inconclusive: 35.5 µM [inhibitor, single point].
For `CCN1CSC(=S)N(Cc2ccc(OC)cc2)C1`, the Potency was inconclusive: 3.55 µM [inhibitor, partial curve, poor fit].
With `CC(=O)c1sc(Nc2cccc(C)c2)nc1C` the Potency was inconclusive: 2.51 µM [inhibitor, partial curve, poor fit].
In the case of `NC(=S)Cc1nc(-c2ccc(Cl)cc2)cs1`, the Potency is reported as “inactive”.
With `Cc1ccc(-c2nnc(NCc3nc4ccccc4[nH]3)c3ccccc23)cc1S(=O)(=O)N(C)C` the Potency was inconclusive: 35.5 µM [inhibitor, single point].
With `Cc1ccc(S(=O)(=O)N2[C@@H](c3ccc(Cl)cc3)C(C(=O)O)=C[C@H]2CC2CCCC2)cc1` the Potency was “inactive”.
For `CC(C)N1C/C(=C/c2cccnc2)C(=O)/C(=C/c2cccnc2)C1`, the Potency was inconclusive: 5.62 µM [inhibitor, single point].
In the case of `CCCOc1ccc2cc(C(=O)NCc3ccccc3)c(=O)oc2c1`, the Potency is reported as active: 31.6 µM.
In the case of `C=C(C)C(=O)Oc1ccc(N2C(=O)[C@@H]3C4C=CC(C4)[C@@H]3C2=O)cc1`, the Potency is reported as inconclusive: 35.5 µM [inhibitor, single point].
With `O=C(CO)N/N=C/c1c2ccccc2cc2ccccc12` the Potency was inconclusive: 11.2 µM [inhibitor, single point].
In the case of `O=C(Nc1ccc(NC(=O)c2ccco2)c(Cl)c1)c1cccc([N+](=O)[O-])c1`, the Potency is reported as inconclusive: 6.31 µM [inhibitor, single point].
In the case of `N#C/C(=C\c1ccc(O)cc1)c1nc2ccccc2o1`, the Potency is reported as inconclusive: 12.6 µM [inhibitor, partial curve, poor fit].
With `N#C/C(C(=O)NCc1ccccc1)=C1/N=C(NC(=O)c2cccs2)c2ccccc21` the Potency was inconclusive: 35.5 µM [inhibitor, single point].
For `COc1ccccc1-c1nn(-c2ccccc2)cc1C(=O)NCC(c1ccco1)N1CCCC1` (stereo not drawn), the Potency was inconclusive: 6.31 µM [inhibitor, single point].
For `O=S(=O)([N-]c1nc2ccccc2nc1-n1cc[n+](Cc2ccccc2)c1)c1ccc(Br)cc1`, the Potency was inconclusive: 11.2 µM [inhibitor, partial curve, poor fit].
With `Cn1c(=N)n(CC(=O)c2ccc(Br)cc2)c2ccccc21` the Potency was inconclusive: 35.5 µM [inhibitor, single point].
For `CC(=O)Nc1ccc2nc(SCC(=O)O)sc2c1`, the Potency was “inactive”.
For `CCN(CC)C(=O)Cn1c(=O)c2ccccc2n2c(=S)sc(-c3cccc(C)c3)c12`, the Potency was “inactive”.
With `COc1ccccc1N=NC1C(=O)N(C(N)=S)N=C1C` (stereo not drawn) the Potency was inconclusive: 3.16 µM [inhibitor, partial curve, poor fit].
In the case of `S=C(Nc1ccccc1)N1N=C(c2cccs2)CC1c1cccs1` (stereo not drawn), the Potency is reported as “inactive”.
In the case of `N#C/C(=C(/O)COC(=O)CSc1ccc2ccccc2c1)c1nc2ccccc2[nH]1`, the Potency is reported as inconclusive: 35.5 µM [inhibitor, single point].
With `CCN=c1scc(C)n1/N=C/c1ccc(O)c(O)c1O` the Potency was “inactive”.
In the case of `O=C(Nc1nc2c(F)cc(F)cc2s1)c1ccccn1`, the Potency is reported as inconclusive: 0.562 µM [inhibitor, partial curve, poor fit].
With `Cc1nc2ccc(NS(=O)(=O)c3cccc([N+](=O)[O-])c3)cc2s1` the Potency was “inactive”.
For `CCOc1ccc2c(c1)/C(=C(\C(Cl)=C(Cl)Cl)[N+](=O)[O-])N2`, the Potency was inconclusive: 35.5 µM [inhibitor, single point].
With `CCCc1ccc(O)c(N=Cc2cc(Br)cc(OCC)c2O)c1` the Potency was inconclusive: 25.1 µM [inhibitor, single point].
In the case of `Cc1cc(C)c2sc(NNC(=O)C3COc4ccccc4O3)nc2c1` (stereo not drawn), the Potency is reported as “inactive”.
For `O=C(COc1ccc2ccccc2c1)Nc1ccc2c3c(cccc13)CC2`, the Potency was inconclusive: 3.55 µM [inhibitor, single point].
In the case of `CC(=O)N=c1c(C#N)cc2c(=O)n3ccccc3nc2n1CCCOC(C)C`, the Potency is reported as “inactive”.
In the case of `CCn1c2ccccc2c2cc(NC(C)=O)ccc21`, the Potency is reported as “inactive”.
For `O=C1C2CC=CCC2C(=O)N1Nc1ccccc1` (stereo not drawn), the Potency was “inactive”.
For `COc1cc2oc3cc(C#Cc4ccc(N)cc4)ccc3c(=O)c2cc1OC`, the Potency was inconclusive: 35.5 µM [inhibitor, single point].
With `CC(=O)Nc1c(-c2ccc(Cl)cc2)c(=O)c2ccccc2n1C` the Potency was inconclusive: 8.91 µM [inhibitor, partial curve].
For `CCCCC[C@@H](/C=C/C1C(=O)C=C[C@H]1C/C=C\CCCC(=O)O)OC(C)=O` (stereo partly drawn), the Potency was “inactive”.
In the case of `COc1cc(/C=C2/SC(=Nc3ccc(O)cc3)NC2=O)cc(OC)c1O`, the Potency is reported as inconclusive: 3.16 µM [inhibitor, single point].
For `CCc1cc2ccc(C)cc2nc1SCC(=O)NNC(=O)c1ccco1`, the Potency was inconclusive: 5.62 µM [inhibitor, single point].
With `COc1ccccc1C(=O)N/C(N)=N/c1nc2ccccc2o1` the Potency was inconclusive: 20 µM [inhibitor, partial curve, poor fit].
In the case of `CC(C)[C@H](NC(=O)c1ccccc1)C(=O)N1CCc2ccccc21`, the Potency is reported as inconclusive: 12.6 µM [inhibitor, partial curve, poor fit].
